The target in the assay is T1, mLysRS:IN interaction (human mLysRS, HIV-1 IN) (UniProt P12497+Q15046).
T1 construct: made in house
The experiment in a line: HTRF assay of mLysRS:IN interaction. The following applies: dihydropyridine derivatives, Fig. S2. Format: binding, human / HIV-1. How it is done:
Fig 1 Determination of the half-maximal inhibitory concentration (IC50) of the drugs in the mLysRS:IN binding assay. The binding of mLysRS to IN (red) or p38 (blue) was monitored in the HTRF assay in the presence of increasing drug concentrations (9–1,000 µM). The experimental values (symbols) were fitted (curves) to the equation Y = Ymin + {(Ymax − Ymin)/[1 + (X/IC50)^n]}, where n is the Hill coefficient. […] Proteins were isolated as described previously ([4]). Several batches of IN were used throughout this study. […] The molecules are dissolved in DMSO at a final concentration of 10 mM. After a 1 h incubation on ice, antibodies (Cisbio) directed to the His-tag and conjugated with Eu^3+ cryptate (Cisbio #61HISKLB) and the HA-tag conjugated with XL665 (Cisbio #610HAXLB) were added, and incubation was continued for 30 min. After the addition of 50 mM KF, fluorescence of Eu^3+ cryptate and of XL665 was recorded at 620 nm (I620) and 665 nm (I665), respectively, following excitation of Eu^3+ cryptate at 317 nm, in an Infinite M1000 PRO microplate reader (TECAN). The results were expressed as the ratio of I665/I620.

Amino acid sequences for entries named in this document (tags omitted). Chains listed by the source or under a name are the forms on record and can include a tag or linker.
UniProt Q15046, other isoform, or with tags, fused parts or gaps: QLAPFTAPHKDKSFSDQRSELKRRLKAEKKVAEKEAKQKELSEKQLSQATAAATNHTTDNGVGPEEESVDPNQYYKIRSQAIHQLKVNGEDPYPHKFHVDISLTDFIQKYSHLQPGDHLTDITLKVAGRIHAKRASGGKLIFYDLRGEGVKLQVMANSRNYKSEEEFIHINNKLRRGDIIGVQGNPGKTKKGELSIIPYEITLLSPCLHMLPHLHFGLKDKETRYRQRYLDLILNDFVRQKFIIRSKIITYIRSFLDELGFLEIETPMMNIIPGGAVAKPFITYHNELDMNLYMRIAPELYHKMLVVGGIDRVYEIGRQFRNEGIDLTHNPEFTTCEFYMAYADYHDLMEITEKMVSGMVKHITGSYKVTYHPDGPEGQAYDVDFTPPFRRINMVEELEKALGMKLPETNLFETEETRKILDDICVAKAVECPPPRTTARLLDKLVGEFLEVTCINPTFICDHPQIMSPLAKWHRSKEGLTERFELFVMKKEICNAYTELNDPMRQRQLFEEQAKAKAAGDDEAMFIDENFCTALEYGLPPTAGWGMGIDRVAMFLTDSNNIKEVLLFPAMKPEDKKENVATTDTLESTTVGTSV

Structures are written as SMILES.

Experimental findings from paper PMC12607897, “Inhibition of HIV-1 replication by primer RNA packaging inhibitors” (mBio, 2025) are described below.

As to `COC(=O)C1=C(C)NC(C)=C(C(=O)OC)C1c1ccccc1[N+](=O)[O-]` [nifedipine], the “effect on the mLysRS:IN interaction in the HTRF assay” value is on record as “did not significantly alter”.
